Source: doi:10.1101/2022.10.04.510902 (bioRxiv, 2022)
Results are given in words; binding and its absence hold for the method and conditions named. A result given as binding can be weak or reduced; the word gives no strength. Sequences can lack the tags named with a protein. One block for each molecule: values may come before it.

What was measured:
[1] = target: T1, HisGB1-CHRONO minimal repressive domain (MRD) (human) (UniProt Q8N365); assay: pull-down
T1 sequence: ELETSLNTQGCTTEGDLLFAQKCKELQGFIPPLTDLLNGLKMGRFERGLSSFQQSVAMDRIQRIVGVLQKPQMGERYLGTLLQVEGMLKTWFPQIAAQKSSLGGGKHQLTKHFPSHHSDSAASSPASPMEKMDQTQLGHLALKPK

[2] = target: BMAL1 transactivation domain (TAD), residues 579-626 (mouse); assay: NMR titration

binding [1]: binds
Molecule: BMAL1 transactivation domain (TAD), residues 579-626 (mouse) (domain or fragment)

binding [2]: binds
B1: His-CHRONO minimal repressive domain (MRD) (domain or fragment, UniProt Q8N365 101-245)
chain: T1 sequence
